Mtb growth Cornell: 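Whole-cell assay for inhibitors of Mycobacterium tuberculosis growth, labelled Cornell in the record; the read-out is not stated. The concentration is filed as 10 mM, unlikely as a test dose, so the dose is not known. The record gives no direction; compounds strong in two other growth screens of this library score well above the rest, so higher reads as stronger inhibition. Size under these conditions: about 53,000 compounds, about 900 of them at 50% or above in at least one test.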
Mtb heat-shock: 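Assay on Mycobacterium tuberculosis, filed only as a heat shock assay from Cornell; the read-out is not stated. The concentration is filed as 10 mM, unlikely as a test dose, so the dose is not known. Direction is inferred from retests: higher values go with stronger inhibition. About 69,000 compounds were tested under these conditions; 1.4% (about 930) showed 50% or more at least once.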

Values are the deposited “Percent Effect”, in %.
How 0% and 100% were set is not recorded. Most values in the screen are low, and negative values occur.
The compounds are a random part of those screened.
A dash means the value is not listed here; it may have been measured.

| # | compound | Mtb growth Cornell | Mtb heat-shock |
|---|---|---|---|
| 1 | `CCC(NC(=O)c1coc(COc2cccc(F)c2F)n1)C(=O)NC` (stereo not given) | 8.95 | -3.108 |
| 2 | `COc1nc2c(cc1C(=O)NCCc1nc3c(s1)CCC3)CCC2` | 4.198 | -9.851 |
| 3 | `COCCN(CCOC)C(=O)c1c[nH]nc1-c1cccc(F)c1` | -10.6 | -14.01 |
| 4 | `Cc1cccc(OC2CCN(Cc3ncc[nH]3)CC2)c1` | -5.529 | -3.662 |
| 5 | `O=C(Nc1cccnc1N1CCCC1)C1CCS(=O)(=O)C1` (stereo not given) | - | -5.572 |
| 6 | `COCCN1CCc2nc(SCc3ccc(F)cc3)[nH]c(=O)c2C1` | - | -13.68 |
| 7 | `Cc1nn(C)c(N2CCOCC2)c1CNCc1ccoc1C` | - | -24.53 |
| 8 | `COCc1noc(-c2ccc(N(C)Cc3cc(C)no3)nc2)n1` | - | 18.52 |
| 9 | `CC(C)Cn1ncc(C(=O)NS(=O)(=O)c2ccccc2)c1C1CC1` | - | 8.426 |
| 10 | `N#Cc1cccnc1NCc1ccc(S(=O)(=O)NC2CC2)cc1` | 28.12 | 26.85 |
| 11 | `COc1ccc(OC2CCN(C(=O)CCc3nc(Cl)n[nH]3)CC2)cc1` | - | -9.56 |
| 12 | `CC(Cn1cccn1)NCc1csc(COc2ccc(F)cc2)n1` (stereo not given) | - | 104 |
| 13 | `Cc1cc(C)c(CNC(=O)NCC(O)c2cccc(F)c2)c(=O)[nH]1` (stereo not given) | 7.766 | -4.661 |
| 14 | `CC(C)c1cc(C(=O)N2CCN(c3cccc(C(=O)O)c3)CC2)n(C)n1` | 7.984 | -15.39 |
| 15 | `O=C(O)C(F)(F)F.O=C(O)C(F)(F)F.[H][C@@]12CCN(c3ncc(F)cn3)[C@]1([H])CC[C@@H](C(=O)NCc1cccnc1)O2` | 15.63 | 1.95 |
| 16 | `CN(C)S(=O)(=O)NCC1OCCc2cn(CC3CCOCC3)nc21` (stereo not given) | 3.8 | -28.23 |
| 17 | `Cc1noc(C)c1CCC(=O)N1CCn2cccc2C1C` (stereo not given) | 3.492 | 7.646 |
| 18 | `CCN(CC)c1ccc(CNC(=O)c2cccc(C)n2)cn1` | -26.92 | -4.483 |
| 19 | `O=C(O)C(F)(F)F.O=C(O)C(F)(F)F.[H][C@@]12COC[C@]1(COCc1ccncc1)CN(Cc1cccs1)C2` | -3.495 | -17.61 |
| 20 | `Cn1cnnc1CNC(=O)C1CCCN(Cc2cccc(F)c2)C1` (stereo not given) | 1.944 | 11.71 |
| 21 | `CC(O)CN1CCN(C(=O)c2cccn2Cc2ccncc2)CC1` (stereo not given) | 22.98 | 2.034 |
| 22 | `CCc1nn(C)c(Cl)c1CN1CCN(c2ccc(C(N)=O)cn2)CC1` | 15.15 | -26.5 |
| 23 | `O=C(c1cccs1)N1CCC2(CC1)CCN(S(=O)(=O)C1CC1)CC2` | -1.578 | 36 |
| 24 | `COc1ccc(N(c2ccccc2)c2ccc(C(=O)O)s2)cc1` | 73.26 | -17.27 |
| 25 | `O=C(O)C(F)(F)F.O=C(O)C(F)(F)F.O=C(O)C(F)(F)F.[H][C@@]12CCN(Cc3ccccn3)[C@@]1([H])CC(=O)N2Cc1cccnc1` | 14.51 | -6.498 |
| 26 | `O=C(O)C(F)(F)F.O=C(O)C(F)(F)F.[H][C@]12C[C@H](C(=O)NC)N(C(C)C)[C@@]1([H])CN(C(=O)c1ccc(C)nc1)C2` | 9.519 | -1.488 |
| 27 | `CN(C)c1ncccc1CNC(=O)N1CCCC1CN1CCCC1` (stereo not given) | - | -27.62 |
| 28 | `O=C(CCn1cccn1)N1CC[C@@H](c2ccc3ccccc3c2)[C@H](O)C1` | -1.48 | 4.157 |
| 29 | `CCCS(=O)(=O)NC(=O)c1ccc(Br)o1` | 20.05 | 16.36 |
| 30 | `O=C(c1cc[nH]n1)N1CCc2ncnc(N3CCSCC3)c2CC1` | 23.2 | -18.42 |
| 31 | `CCc1nccn1CCC(=O)N1CCN(c2ccccc2C)CC1C` (stereo not given) | 28.25 | -8.572 |
| 32 | `O=C1CC(NCc2cccc(O)c2)CN1CCc1cccc(Cl)c1` (stereo not given) | -21.6 | -13.44 |
| 33 | `CCc1nc(CN2CCCN(C(=O)C3CCOCC3)CC2)cs1` | -35.08 | 16.41 |
| 34 | `Cc1nc(Cn2c3c(ccc2=O)CC(NC(C)C)CC3)cs1.O=C(O)C(F)(F)F.O=C(O)C(F)(F)F` (stereo not given) | -9.636 | 34.33 |
| 35 | `CN1CC(=O)N(c2ccsc2)CC12CCN(C(=O)c1cccn1C)C2.O=C(O)C(F)(F)F` (stereo not given) | 6.037 | -22.87 |
| 36 | `CN(CCCc1nccn1C)c1nccc(-c2cc(C(=O)O)ccn2)n1` | - | -0.633 |
| 37 | `Cc1cnn(CC2CN(c3ncnc4ccccc34)CCO2)c1` (stereo not given) | 29.19 | 10.04 |
| 38 | `Cc1nnc(NCC(c2ccco2)N(C)C)c(C#N)c1C` (stereo not given) | 16.53 | 19.01 |
| 39 | `COCC(=O)NCCc1ccc(I)s1` | - | 20.65 |
| 40 | `O=C(C(c1ccccc1)S(=O)(=O)c1ccccc1)N1CCCCC1` (stereo not given) | 34.04 | -1.819 |
| 41 | `CC(C)Oc1ncccc1CNC(=O)NC1CCOc2ccccc21` (stereo not given) | -11.76 | -23.19 |
| 42 | `CC(=O)Nc1nc(CN2CCCC2c2cnn(C)c2)cs1` (stereo not given) | 23.99 | -12.19 |
| 43 | `CC(=O)N1CCCN(C(=O)NCCCn2cncn2)CC1` | - | -1.651 |
| 44 | `CC(Cn1cccn1)NC(=O)Nc1cccnc1` (stereo not given) | -20.28 | -25.09 |
| 45 | `CNC(=O)c1nc(Cn2ncc3ccccc3c2=O)no1` | 6.516 | 3.826 |
| 46 | `CNC(=O)C(C)NC(=O)c1ccc(Oc2cccnc2)cc1` (stereo not given) | - | 14.12 |
| 47 | `Cl.Cl.[H][C@@]12CC[C@H](COCc3csc(C)n3)O[C@]1([H])CCN2` | 18.92 | 3.068 |
| 48 | `Cc1cccnc1C(=O)N1CCCCC1c1[nH]ncc1S(C)(=O)=O` (stereo not given) | - | 11.3 |
| 49 | `CC(C)Cc1nc(OCC(=O)O)c(C#N)c2c1CCC2` | - | -2.296 |
| 50 | `CN1CCN(Cc2noc(-c3cc(-c4ccccc4F)n[nH]3)n2)CC1` | -24.66 | -20.29 |
| 51 | `CCc1cccc(NC(=O)NC2CCc3nc(C)nn3C2)c1` (stereo not given) | 9.996 | 5.859 |
| 52 | `Cc1ccc(NC(=O)N2CCN(Cc3ccccn3)CC2)cc1Cl` | -19.48 | 18.79 |
| 53 | `CN(C)C(=O)COCc1nnc2n1CCN(Cc1ccsc1)C2.O=C(O)C(F)(F)F` | -43.6 | -2.603 |
| 54 | `c1cnc(NCC2Cn3nnc(-c4ccsc4)c3CO2)nc1` (stereo not given) | -13.31 | -3.46 |
| 55 | `CCn1nc(CC(C)C)cc1C(=O)N1CC(N2CCCCC2C)C1` (stereo not given) | - | -25.3 |
| 56 | `CCOC(=O)CCNC(=O)c1cccc2ccc(C)nc12` | 35.28 | -33.44 |
| 57 | `Cc1cc(CN2CCc3nc(C)n(C)c(=O)c3CC2)[nH]n1` | - | -26.85 |
| 58 | `CC(C)c1nc(CN(C)Cc2cnc(N3CCOCC3)nc2)no1` | 29.48 | -10.99 |

The last 5 entries again:

| compound | Mtb growth Cornell | Mtb heat-shock |
|---|---|---|
| `c1cnc(NCC2Cn3nnc(-c4ccsc4)c3CO2)nc1` (stereo not given) | -13.31 | -3.46 |
| `CCn1nc(CC(C)C)cc1C(=O)N1CC(N2CCCCC2C)C1` (stereo not given) | - | -25.3 |
| `CCOC(=O)CCNC(=O)c1cccc2ccc(C)nc12` | 35.28 | -33.44 |
| `Cc1cc(CN2CCc3nc(C)n(C)c(=O)c3CC2)[nH]n1` | - | -26.85 |
| `CC(C)c1nc(CN(C)Cc2cnc(N3CCOCC3)nc2)no1` | 29.48 | -10.99 |

From ChEMBL document CHEMBL3988442, “University of Dundee, Small-Polar-MMV Screening Library” (2021).